PubChem BioAssay AID1053208 | Peter MacCallum Cancer Centre | 2014
The deposit covers about 17,000 reagents; shown is a part drawn at random. 788 of them (4.7%) were called active. 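Calls rest on z-score classes alone; an extra cut-off of viability at most 70% of control was not applied to them.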 A number with no mark means an inactive call.

Aim: 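Find knock-downs that sensitise mouse osteosarcoma cells to doxorubicin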 (primary screen)
System: mouse osteosarcoma cells, early-passage culture from an engineered mouse model of fibroblastic bone tumour
Knock-down reagent: siRNA pool against mouse genes, 40 nM
Timing: about 120 h (48 h before drug, then 72 h with drug)
Conditions: doxorubicin 100 nM for 72 h, roughly 30-40% inhibitory dose
Measured: 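Viability read as ATP luminescence after 72 h of 100 nM doxorubicin or none, duplicate wells averaged, scaled to non-targeting siRNA, then expressed as robust z-scores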
Direction: viability z-score with doxorubicin and doxorubicin viability vs non-targeting: higher = more viable cells under doxorubicin; viability z-score without drug: higher = more viable cells with knock-down alone; z-score of drug to no-drug ratio: higher = less drug sensitisation by knock-down
Active means: 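a pool counts as active when its viability z-score with doxorubicin is -2 or below and its z-score without drug lies between -2 and 2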

no.	gene	PubChem SID	combined z-score class	viability z-score with doxorubicin	viability z-score without drug	z-score of drug to no-drug ratio	doxorubicin viability vs non-targeting
1	Msr1	SID152302137	no change with or without drug	1.24	-0.84	2.14	1.05
2	Aldh3b3	SID152272883	high cell count without drug only	0	2.02	-1.12	0.94
3	Aldh3b3	SID152324201	no change with or without drug	-0.34	-0.84	0.34	0.91
4	Vash1	SID152263534	no change with or without drug	0.9	1.85	-0.22	1.02
5	Pabpn1	SID152278876	no change with or without drug	-0.34	-1.18	0.56	0.91
6	Pla2g4b	SID152339832	no change with or without drug	0	1.35	-0.79	0.94
7	Lzic	SID152269131	no change with or without drug	1.35	1.35	0.56	1.06
8	Stk-ps2	SID152283465	no change with or without drug	-1.46	0.84	-1.91	0.81
9	Slc23a3	SID152315485	no change with or without drug	-0.67	-0.17	-0.45	0.88
10	Treml6	SID152315435	no change with or without drug	-1.8	-0.51	-1.46	0.78
11	Caap1	SID152310903	no change with or without drug	0.67	0.67	0.34	1
12	Clec1a	SID152294678	no change with or without drug	0.11	1.52	-0.79	0.95
13	Fahd2a	SID152269221	no change with or without drug	0.67	1.01	0.11	1
14	Gm6740	SID152303680	no change with or without drug	-1.24	-0.51	-0.9	0.83
15	Krt12	SID152340930	no change with or without drug	-0.9	-0.51	-0.56	0.86
16	Tspan31	SID152281290	no change with or without drug	0.22	1.18	-0.45	0.96
17	Bach1	SID152270038	high cell count with and without drug	3.04	2.53	1.35	1.21
18	Tmt1a2	SID152323805	high cell count with and without drug	3.15	2.19	1.69	1.22
19	Or10ag60	SID152299423	no change with or without drug	0.45	0	0.56	0.98
20	Ghitm	SID152338011	no change with or without drug	0.22	1.18	-0.45	0.96
21	Cyth1	SID152274209	high cell count with doxorubicin only	2.02	1.18	1.35	1.12
22	Vav1	SID152278657	low cell count with doxorubicin only (active)	-3.37	-1.18	-2.81	0.64
23	Dnai3	SID152318501	no change with or without drug	1.35	1.85	0.22	1.06
24	Syne4	SID152260011	no change with or without drug	0	-0.34	0.34	0.94
25	Olfr899	SID152312864	no change with or without drug	0	1.69	-0.9	0.94
26	Bptf	SID152326269	no change with or without drug	0.56	1.01	0	0.99
27	Tnfaip8l2	SID152271576	high cell count without drug only	0.79	2.53	-0.67	1.01
28	Hoxa11	SID152278371	no change with or without drug	0	-0.84	0.67	0.94
29	Spdye4a	SID152338209	no change with or without drug	-0.9	0.34	-1.01	0.86
30	Ranbp9	SID152318971	no change with or without drug	0.11	-0.34	0.45	0.95
31	Fundc2	SID152307727	no change with or without drug	0.56	1.01	0	0.99
32	Chrne	SID152307935	no change with or without drug	-1.8	-1.18	-1.01	0.78
33	Klra5	SID152296729	no change with or without drug	1.12	1.35	0.34	1.04
34	Prss35	SID152328943	no change with or without drug	0.67	1.52	-0.22	1
35	Lamb2	SID152314670	no change with or without drug	-0.22	1.52	-1.12	0.92
36	Snip1	SID152303039	no change with or without drug	-0.34	-1.01	0.45	0.91
37	Uba7	SID152298546	no change with or without drug	-1.35	-0.67	-0.9	0.82
38	Gpr21	SID152269350	high cell count with doxorubicin only	2.7	0.51	2.47	1.18
39	Huwe1	SID152312465	no change with or without drug	1.8	1.18	1.12	1.1
40	Cfhr1	SID152260743	low cell count with doxorubicin only (active)	-2.25	-0.67	-1.91	0.74
41	Haus1	SID152337908	no change with or without drug	-0.67	-1.01	0.11	0.88
42	Cox16	SID152300487	no change with or without drug	-1.46	-0.51	-1.12	0.81
43	Tnpo2	SID152286865	no change with or without drug	1.35	-0.34	1.8	1.06
44	Kifc2	SID152328371	no change with or without drug	0.56	0.34	0.45	0.99
45	Mug1	SID152301201	no change with or without drug	-0.9	0.51	-1.12	0.86
46	Tlm	SID152261793	no change with or without drug	1.12	-0.51	1.69	1.04
47	Crot	SID152315514	no change with or without drug	-0.67	-1.18	0.22	0.88
48	Adamts10	SID152312147	no change with or without drug	0.45	1.52	-0.45	0.98
49	Emsy	SID152306714	no change with or without drug	-0.45	0.67	-0.79	0.9
50	Fam185a	SID152322614	no change with or without drug	0.22	-0.67	0.79	0.96

In a second layout: results already given
gene | PubChem SID | combined z-score class | viability z-score with doxorubicin | viability z-score without drug | z-score of drug to no-drug ratio | doxorubicin viability vs non-targeting
Aldh3b3 | SID152272883 | high cell count without drug only | 0 | 2.02 | -1.12 | 0.94
Aldh3b3 | SID152324201 | no change with or without drug | -0.34 | -0.84 | 0.34 | 0.91
Vash1 | SID152263534 | no change with or without drug | 0.9 | 1.85 | -0.22 | 1.02
Pabpn1 | SID152278876 | no change with or without drug | -0.34 | -1.18 | 0.56 | 0.91
Pla2g4b | SID152339832 | no change with or without drug | 0 | 1.35 | -0.79 | 0.94
Lzic | SID152269131 | no change with or without drug | 1.35 | 1.35 | 0.56 | 1.06
Stk-ps2 | SID152283465 | no change with or without drug | -1.46 | 0.84 | -1.91 | 0.81
Slc23a3 | SID152315485 | no change with or without drug | -0.67 | -0.17 | -0.45 | 0.88
